In PMC8094117:
These are yes or no findings as the source states them, for the method shown. Binding seen in cells or lysates may run through a third protein. Here binding means that the protein was enriched with, or labelled near, the bait; the list need not be complete. For some assays here: Where a sequence is shown, tags or fusion partners need not be part of it.

Columns and labels:
[1] = target: Sgo1-4R-6His-3Flag (Sgo1-K56R K64R K70R K85R) (S. cerevisiae) (UniProt Q08490); assay: affinity purification with mass spectrometry; Sgo1-6His-3Flag immunoprecipitated with anti-Flag Protein G Dynabeads from benzonase-treated lysates of benomyl-arrested cells grown at 30°C (wild type, siz1Δ siz2Δ, sgo1-4R, sgo1-3A); label-free quantitative MS in triplicate
[2] = target: T1, Sgo1-6His-3Flag (S. cerevisiae) (UniProt Q08490); assay: as above
T1 sequence: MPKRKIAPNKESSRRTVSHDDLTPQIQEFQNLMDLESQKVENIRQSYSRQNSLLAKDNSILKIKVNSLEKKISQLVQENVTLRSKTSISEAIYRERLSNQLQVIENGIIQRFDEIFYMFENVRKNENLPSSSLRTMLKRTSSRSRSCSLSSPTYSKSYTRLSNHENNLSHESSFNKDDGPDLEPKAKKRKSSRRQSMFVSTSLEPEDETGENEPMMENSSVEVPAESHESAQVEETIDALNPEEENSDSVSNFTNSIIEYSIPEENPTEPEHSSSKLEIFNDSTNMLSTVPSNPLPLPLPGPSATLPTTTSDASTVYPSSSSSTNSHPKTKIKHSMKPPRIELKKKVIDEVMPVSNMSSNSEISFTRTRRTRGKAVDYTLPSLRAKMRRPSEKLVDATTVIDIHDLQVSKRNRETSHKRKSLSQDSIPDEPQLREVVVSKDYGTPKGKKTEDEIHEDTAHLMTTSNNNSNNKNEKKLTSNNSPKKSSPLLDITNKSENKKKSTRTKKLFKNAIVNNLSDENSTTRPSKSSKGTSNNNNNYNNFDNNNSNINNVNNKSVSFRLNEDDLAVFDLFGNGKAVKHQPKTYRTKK

B1: Brn1 (endogenous) (protein, UniProt P38170 1-754)
chain: MTTQLRYENNDDDERVEYNLFTNRSTMMANFEEWIKMATDNKINSRNSWNFALIDYFYDLDVLKDGENNINFQKASATLDGCIKIYSSRVDSVTTETGKLLSGLAQRKTNGASNGDDSNGGNGEGLGGDSDEANIEIDPLTGMPISNDPDVNNTRRRVYNRVLETTLVEFETIKMKELDQELIIDPLFKKALVDFDEGGAKSLLLNTLNIDNTARVIFDASIKDTQNVGQGKLQRKEEELIERDSLVDDENEPSQSLISTRNDSTVNDSVISAPSMEDEILSLGMDFIKFDQIAVCEISGSIEQLRNVVEDINQAKDFIENVNNRFDNFLTEEELQAAVPDNAEDDSDGFDMGMQQELCYPDENHDNTSHDEQDDDNVNSTTGSIFEKDLMAYFDENLNRNWRGREHWKVRNFKKANLVNKESDLLEETRTTIGDTTDKNTTDDKSMDTKKKHKQKKVLEIDFFKTDDSFEDKVFASKGRTKIDMPIKNRKNDTHYLLPDDFHFSTDRITRLFIKPGQKMSLFSHRKHTRGDVSSGLFEKSTVSANHSNNDIPTIADEHFWADNYERKEQEEKEKEQSKEVGDVVGGALDNPFEDDMDGVDFNQAFEGTDDNEEASVKLDLQDDEDHKFPIRENKVTYSRVSKKVDVRRLKKNVWRSINNLIQEHDSRKNREQSSNDSETHTEDESTKELKFSDIIQGISKMYSDDTLKDISTSFCFICLLHLANEHGLQITHTENYNDLIVNYEDLATTQAAS
binding [1]: binds | binding [2]: binds
